At least one peptide structure holds a part that was inferred or is arguable (an end, a ring closure or a residue). No end group written: not given here.
System: T-tropic HIV isolate
Experiment: HIV infection of Jurkat cells, reverse transcriptase assay of culture medium
Assay type: cell-based
Settings: 100 μM peptide; 3 weeks in culture
Method: Peptides were added on day 0, one hour prior to infection of the cells with HIV isolate. The full length chemokine SDF-1α was used as a positive control.
(SEQ ID NO:1), or (iv) 100 ng/ml SDF-1, which should bind to and block all CXCR-4 receptors. After 3 weeks in culture, viral replication was assessed by a reverse transcriptase assay of the culture medium. Peptide 3(1-12)[MCP-1]
Since peptide 2(1-15)[MCP1] […] (SEQ ID NO:3) binds and inhibits an epitope used by HIV for cell entry but not by MCP-1 for signaling. To test this hypothesis, the same HIV infection assay described above was employed to test whether peptide 2(1-15)[MCP-1] (SEQ ID NO:3) inhibits HIV infection of Jurkat cells. At 100 μM, peptide 2(1-15)[MCP-1]

## SYRRITSSKCPKEAV [Peptide 2]
  inhibition of Jurkat cell infection by HIV: more effective than peptide 3(1-12)[MCP-1]

Reference: US6989435B2, “Compounds and methods to inhibit or augment an inflammatory response” (Cambridge University Technical Services Ltd., priority 1997, dated 2006)
